“And” between values parts separate entries of the source, which are not always exact repeats. Identical values can stand only once. ± gives the standard deviation of the averaged measurements. This is one part of the list. Several reference drugs read as weak here; read low effects with care.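 Prematurely aging human mesenchymal stem cells without the Werner syndrome gene were monitored by automated live-cell imaging over three biological repeats. The top twenty drugs for increasing growth versus vehicle moved forward; no fixed cutoff was specified.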
Test system: Werner syndrome hMSCs (WRN-/-)
Assay: relative cell density (fold change vs vehicle control); higher = more proliferation (geroprotective)
Details: concentration (umol/L): 1, 6 days

| SMILES | relative cell density (vehicle: DMSO) | relative cell density (vehicle: Water) |
| --- | --- | --- |
| Oc1cc(Cl)ccc1Oc1ccc(Cl)cc1Cl | 1.13 | – |
| C[C@]12CC[C@H]3[C@@H](CC[C@@]45O[C@@H]4C(O)=C(C#N)C[C@]35C)[C@@H]1CC[C@@H]2O | 1.39 | – |
| COC(=O)C1=CCCN(C)C1 | 0.957 | – |
| CNCC(=O)c1ccc(O)c(O)c1 | 0.18 | – |
| CC(C)N(CCNC(=O)CN1CCCC1=O)C(C)C | 0.986 | – |
| C[N+]1(C)[C@@H]2C[C@@H](OC(=O)[C@H](CO)c3ccccc3)C[C@H]1[C@@H]1O[C@@H]12 | 1.27 | – |
| CCN(C)C(=O)Oc1cccc([C@H](C)N(C)C)c1 | 1 and 1.09 | – |
| CCC1(c2ccc(N)cc2)CCC(=O)NC1=O (stereo not given) | 1.12 | – |
| C[C@@H]1O[C@@H](O[C@H]2C[C@@H](O)[C@]3(CO)[C@H]4[C@H](O)C[C@]5(C)[C@@H](C6=CC(=O)OC6)CC[C@]5(O)[C@@H]4CC[C@]3(O)C2)[C@H](O)[C@H](O)[C@H]1O | 0.0879 | – |
| C1CO1.C=O.CC(C)(C)CC(C)(C)c1ccc(O)cc1 | 1.06 | – |
| NC(=O)CN1CCCC1=O | 1.23 | – |
| O=P1(NCCCl)OCCCN1CCCl (stereo not given) | 0.989 | – |
| O=C(O[C@H]1C[N+]2(CCCOc3ccccc3)CCC1CC2)C(O)(c1cccs1)c1cccs1 | 1.06 | – |
| COc1cc2c(cc1OC)C1CC(=O)C(CC(C)C)CN1CC2 (stereo not given) | 1.04 | – |
| Cc1cccc(C)c1NC1=NCCCS1 | 1.17 | – |
| CN1C(=O)COc2c(C(=O)NC3CN4CCC3CC4)cc(Cl)cc21 (stereo not given) | – | 1.04 |
| C[C@@H]1CC[C@H]2[C@@H](C)C(=O)O[C@@H]3O[C@@]4(C)CC[C@@H]1[C@]32OO4 | 0.786 | – |
| CCC1(c2cccc(O)c2)CCCCN(C)C1 (stereo not given) | 0.89 | – |
| CCC(COC(=O)c1cc(OC)c(OC)c(OC)c1)(c1ccccc1)N(C)C (stereo not given) | 1.2 | – |
| NCCc1c[nH]c2ccc(O)cc12 | 1.21 | – |
| Cc1cccc([C@H](C)c2c[nH]cn2)c1C | 1.34 and 1.08 | – |
| C#C[C@]1(O)C=C[C@H]2[C@@H]3CCC4=CC(=O)CC[C@@H]4[C@H]3CC[C@@]21CC | 0.903 | – |

| SMILES | relative cell density (vehicle: DMSO) | relative cell density (vehicle: Water) |
| --- | --- | --- |
| Cc1cc(O)ccc1Cl | 1.09 | – |
| CC[C@H]1CN2CC[C@H]1C[C@@H]2[C@@H](O)c1ccnc2ccc(OC)cc12 | 1.36 | – |
| COc1ccc(CN2CCNCC2)c(OC)c1OC | 0.779 | – |
| CCCCCCC(=O)O[C@H]1CC[C@H]2[C@@H]3CCC4=CC(=O)CC[C@]4(C)[C@H]3CC[C@]12C | 1.28 | – |
| N[C@@H](Cc1ccc(N(CCCl)CCCl)cc1)C(=O)O | 0.678 | – |
| O=[N+]([O-])O[C@@H]1CO[C@H]2[C@@H]1OC[C@@H]2O | 1.15 | – |
| N=C(N)NN | 1.18 | – |
| CN1[C@@H]2CC[C@H]1C[C@@H](OC(=O)[C@H](CO)c1ccccc1)C2 | 1.08 | – |
| Nc1nc(N)nc(NC2CC2)n1 | 0.906 | – |
| Cc1cccc(C(C)c2c[nH]cn2)c1C (stereo not given) | 1.24 | – |
| COc1ccc2c(c1)[C@]13CCCC[C@@H]1[C@H](C2)N(C)CC3 | 1.32 | – |
| C/C(=C\c1csc(C)n1)[C@@H]1C[C@@H]2O[C@]2(C)CCC[C@H](C)[C@H](O)[C@@H](C)C(=O)C(C)(C)[C@@H](O)CC(=O)O1 | 0.124 | – |
| Cc1ccccc1-n1c(CF)nc2ccc(N)cc2c1=O | 1.14 | – |
| C=CC[C@]1(O)CC[C@H]2[C@@H]3CCC4=CC(=O)CCC4=C3C=C[C@@]21C | 0.86 | – |
| O=c1[nH]c2ccccc2n1CCCN1CCC(n2c(=O)[nH]c3cc(Cl)ccc32)CC1 | 0.998 | – |
| CCC[C@@H]1CC(=O)N([C@@H](CC)C(N)=O)C1 | 1.18 | – |
| Nc1ccncc1 | 1.09 | – |
| COc1ccc(C(=O)N2CCCC2=O)cc1 | 0.867 | – |
| O=C(O[C@H]1C[C@H]2CC[C@@H](C1)[N+]21CCCC1)C(O)(c1ccccc1)c1ccccc1 | 0.99 | – |
| O=C(O)CCCc1ccc(N(CCCl)CCCl)cc1 | 1.02 | – |
| CC[C@@H](C(N)=O)N1CCCC1=O | 0.966 | – |
| NC(=O)CN1CC(O)CC1=O (stereo not given) | 1.42 | – |

| SMILES | relative cell density (vehicle: DMSO) | relative cell density (vehicle: Water) |
| --- | --- | --- |
| C[CH2][Hg][S]c1ccccc1C(=O)[O-].[Na+] | 0.227 | – |
| CN1c2ccccc2C(NCCCCCCC(=O)O)c2ccc(Cl)cc2S1(=O)=O (stereo not given) | 1.28 | – |
| CN(C)[C@@H]1C(=O)C(C(N)=O)=C(O)[C@@]2(O)C(=O)C3=C(O)c4c(O)ccc(Cl)c4[C@@](C)(O)[C@H]3C[C@@H]12 | – | 1.09 |
| C[N+](C)(C)CCCCCCCCCC[N+](C)(C)C | 1.1 | – |
| CCCN1C[C@H](CSC)C[C@@H]2c3cccc4[nH]cc(c34)C[C@H]21 | 1.23 | – |
| OC1CC2CCC(C1)N2 (stereo not given) | 0.867 | – |
| COc1cc2c(c(OC)c1OC)-c1ccc(OC)c(=O)cc1[C@@H](NC(C)=O)CC2 | 0.459 | – |
| CC(C)c1cccc(C(C)C)c1O | 1.04 | – |
| CC(C)OC(=O)[C@H](C)N[P@](=O)(CO[C@H](C)Cn1cnc2c(N)ncnc21)Oc1ccccc1 | 0.744 | – |
| NCC1(CC(=O)O)CCCCC1 | – | 0.954 and 1.16 |
| CCOC(=O)c1cncn1[C@H](C)c1ccccc1 | 1.17 | – |
| CC(O)(CS(=O)(=O)c1ccc(F)cc1)C(=O)Nc1ccc(C#N)c(C(F)(F)F)c1 (stereo not given) | 1.72 | – |
| Cc1cc(C(C#N)c2ccc(Cl)cc2)c(Cl)cc1NC(=O)c1cc(I)cc(I)c1O (stereo not given) | 0.759 | – |
| O=C(O)c1nn(Cc2ccc(Cl)cc2Cl)c2ccccc12 | 1.23 | – |
| O=C1CC[C@@]2(O)[C@H]3Cc4ccc(O)c5c4[C@@]2(CCN3CC2CC2)[C@H]1O5 | 1.07 | – |
| CN[C@@H]1[C@@H](O)[C@@H](O[C@@H]2[C@@H](O)[C@H](O[C@H]3O[C@H](CN)CC[C@H]3N)[C@@H](N)C[C@H]2N)OC[C@]1(C)O.CN[C@@H]1[C@@H](O)[C@@H](O[C@@H]2[C@@H](O)[C@H](O[C@H]3O[C@H]([C@@H](C)N)CC[C@H]3N)[C@@H](N)C[C@H]2N)OC[C@]1(C)O.CN[C@@H]1[C@@H](O)[C@@H](O[C@@H]2[C@@H](O)[C@H](O[C@H]3O[C@H]([C@@H](C)NC)CC[C@H]3N)[C@@H](N)C[C@H]2N)OC[C@]1(C)O | – | 0.882 |
| Cn1c(CCCC(=O)O)nc2cc(N(CCCl)CCCl)ccc21 | 0.885 | – |
| CN(C)[C@@H]1C(=O)C(C(N)=O)=C(O)[C@@]2(O)C(=O)C3=C(O)c4c(O)cccc4[C@@](C)(O)[C@H]3C[C@@H]12 | 1.08 | – |
| CC(NC(C)(C)C)C(=O)c1cccc(Cl)c1 (stereo not given) | 1.14 | – |
| NC[C@H](CC(=O)O)c1ccc(Cl)cc1 | – | 1.07 ± 0.14 |
| O=[N+]([O-])C(Br)(CO)CO | 1.23 | – |
